Assay results taken from PubChem BioAssay AID1439 (NMMLSC, 2008).
In all, about 220,000 compounds went through this assay and about 770 (0.35%) were called active. The shares of active, inactive and inconclusive entries below differ from those in the screen. Rule as the data show it: active = binding response below about 49% or above about 150%; inconclusive = no clear call, values can overlap the other calls; inactive = in between.

Chains of the proteins cited; added tags and fusions are not shown.
UniProt P09471, whole entry, looked up: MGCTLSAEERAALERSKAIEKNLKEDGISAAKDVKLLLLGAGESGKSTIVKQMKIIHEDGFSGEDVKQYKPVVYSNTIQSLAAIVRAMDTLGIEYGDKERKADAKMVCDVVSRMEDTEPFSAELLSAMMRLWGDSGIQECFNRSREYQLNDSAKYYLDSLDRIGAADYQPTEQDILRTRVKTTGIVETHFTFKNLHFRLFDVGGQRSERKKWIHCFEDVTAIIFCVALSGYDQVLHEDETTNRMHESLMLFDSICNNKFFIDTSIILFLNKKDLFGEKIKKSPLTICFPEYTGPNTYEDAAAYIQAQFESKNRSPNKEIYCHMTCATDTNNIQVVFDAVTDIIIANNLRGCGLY

What follows are compounds tested against Guanine nucleotide-binding protein G(o) subunit alpha (Homo sapiens) (UniProt P09471) (assay: RGS7-Galphao binding modulators, primary screen, biochemical, multiplexed bead flow cytometry (AID 1439;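 also: fluorescent Galphao held in activated GDP-AlF4 state binding bead-coupled RGS7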)). Conditions: at 10 µM, actives lie on both sides.
For `O=[N+]([O-])c1cccc(/C=N/n2cnnc2)c1`, the binding response (% of control) was inconclusive: 78.6%. With `Cc1nnc2c3ccccc3c(-c3cccs3)nn12` the binding response (% of control) was inconclusive: 88.4%. In the case of `CCCCCCCn1c(NC(=O)CC)nc2ccccc21`, the binding response (% of control) is reported as inconclusive: 102%. `Cc1nc(-c2cc(-c3nc(-c4ccc(C(C)(C)C)cc4)no3)no2)cs1` was tested, and the binding response (% of control) was inconclusive: 122%. `CCC(C)NC(=O)CN(c1cc(C)cc(C)c1)S(=O)(=O)c1c(C)[nH]c(=O)[nH]c1=O` (stereo not drawn) was tested, and the binding response (% of control) was inconclusive: 111%. `CNC(=S)NNC(=O)c1oc2nc(-c3ccccc3)cc(-c3ccco3)c2c1N` was tested, and the binding response (% of control) was inconclusive: 102%. With `CC(C1CC2CCC1C2)n1c(-c2cccs2)n[nH]c1=S` (stereo not drawn) the binding response (% of control) was inconclusive: 79.3%. In the case of `CC12CCC(C(=O)Nc3cccc(Cl)c3Cl)([C@H](Br)C1=O)C2(C)C` (stereo partly drawn), the binding response (% of control) is reported as inconclusive: 102%. `Cn1c(CC(=O)c2ccc(Br)cc2)[n+](C)c2ccccc21` was tested, and the binding response (% of control) was inconclusive: 113%. In the case of `CSCCC(NS(=O)(=O)c1ccc(C)cc1)C(=O)NC1CCCCC1` (stereo not drawn), the binding response (% of control) is reported as inactive: 96%. For `CCn1c(Cc2ccccc2)nnc1SCC(=O)Nc1ccc2c(c1)OCO2`, the binding response (% of control) was inactive: 102%. With `CC(C)c1nc(SCC(=O)Nc2ccc3c(c2)OCCO3)n[nH]1` the binding response (% of control) was inactive: 91.3%. For `O=C(O)C1Cc2[nH]cnc2C(c2ccccc2O)N1` (stereo not drawn), the binding response (% of control) was inactive: 105%. In the case of `OC(c1ccccc1)(c1ccccc1)C1CCN(C(=S)NCCc2ccccc2)CC1`, the binding response (% of control) is reported as inactive: 107%. With `Cc1cc(C)n2ncc(/C(N)=N/OC(=O)Nc3ccccc3)c2n1` the binding response (% of control) was inconclusive: -64.2%. `Cc1[nH]nc(N)c1N=Nc1ccc(Br)cc1` was tested, and the binding response (% of control) was inconclusive: 80.7%. In the case of `COC(=O)c1c(C)oc(C)c1S(=O)(=O)Nc1ccccc1`, the binding response (% of control) is reported as inconclusive: 80.6%. With `O=C(NN1C(=O)/C(=C/c2cccs2)SC1=S)c1ccncc1` the binding response (% of control) was inconclusive: 77%. In the case of `O=C(Nc1cccc(S(=O)(=O)NC2=NCCCCC2)c1)c1cccnc1Cl`, the binding response (% of control) is reported as inconclusive: 77%. In the case of `CCOc1ccccc1NC(=O)CN1C(=O)C(=O)N(Cc2ccco2)C1=O`, the binding response (% of control) is reported as inconclusive: 93.8%. With `CCCCC1=CC2=CC(=O)C(C)(OC(=O)c3cnc4ccccc4n3)C(=O)C2=CO1` (stereo not drawn) the binding response (% of control) was inconclusive: 72.3%. `CC(C)NCC#CCOc1ccc(Cl)cc1` was tested, and the binding response (% of control) was inconclusive: 105%. In the case of `c1ccc(-c2nnc(-c3ccccn3)s2)nc1`, the binding response (% of control) is reported as inconclusive: 118%. `O=C(COc1ccc(C(=S)N2CCOCC2)cc1)N1CCCC1` was tested, and the binding response (% of control) was inactive: 98.7%. With `COc1ccc(/C=C/C(=O)Nc2nonc2NC(C)=O)cc1` the binding response (% of control) was inactive: 102%. With `O=C(CCn1c(=S)oc2ccccc21)NCCC1=CCCCC1` the binding response (% of control) was inconclusive: 97.7%. With `COc1ccc(NC(=O)Cn2nnc3ccccc32)c([N+](=O)[O-])c1` the binding response (% of control) was inconclusive: 108%. `OCCN(CCO)CC(O)CN(c1ccccc1)c1ccccc1` (stereo not drawn) was tested, and the binding response (% of control) was inconclusive: 148%. `O=C(NCc1ccco1)c1ccc2c(c1)N(Cc1ccc(Cl)cc1)CCS2` was tested, and the binding response (% of control) was inconclusive: 111%. In the case of `Oc1ccccc1-n1c(-c2ccccc2)ccc1-c1ccccc1`, the binding response (% of control) is reported as inconclusive: 119%. `COCCN1C(=O)C(=O)/C(=C(/O)c2ccc(S(=O)(=O)N3CCOCC3)cc2)C1c1ccc(O)cc1` (stereo not drawn) was tested, and the binding response (% of control) was inconclusive: 103%. `COC(=O)c1ccc2nccnc2c1` was tested, and the binding response (% of control) was inconclusive: 73.8%. With `N=C1C(c2nc3ccccc3s2)=C(O)CN1NC(=O)c1ccco1` the binding response (% of control) was inconclusive: -64.1%. In the case of `CCOc1ccc(Cn2cc(F)c(=O)[nH]c2=O)cc1`, the binding response (% of control) is reported as inconclusive: 5.66%. With `CC(C)(C)c1ccc(OCc2nnc(SCC(N)=O)n2N)cc1` the binding response (% of control) was inconclusive: 103%. With `CCOC(=O)CNS(=O)(=O)c1ccc2c3c(cccc13)C(=O)N2CC` the binding response (% of control) was inconclusive: 107%. For `O=S(=O)(c1ccc(Br)cc1)N1CCOC12CCCCC2`, the binding response (% of control) was inconclusive: 80.5%. For `CCOC(=O)CC1C(=O)NCCN1c1nc2c(C)cccn2c(=O)c1/C=C1\SC(=S)N(C(C)CC)C1=O` (stereo not drawn), the binding response (% of control) was inconclusive: 81.3%. In the case of `COc1cc(NC(=O)c2ccc(Cl)cc2Cl)ccc1NC(=O)c1cccs1`, the binding response (% of control) is reported as inconclusive: 107%. With `Cc1cc(C(=O)NNC(=O)c2cccc(C(F)(F)F)c2)no1` the binding response (% of control) was inconclusive: 134%. For `O=C(O)C1CCCCC1C(=O)Nc1cc(C(F)(F)F)ccc1Cl` (stereo not drawn), the binding response (% of control) was inactive: 99.9%. With `CCN1C(=O)/C(=C\N2CCN(C(=O)c3ccco3)CC2)SC1=S` the binding response (% of control) was inconclusive: 51.5%. For `CC1(c2nnc(-c3ccc(Cl)cc3)o2)CC(c2cccc(Cl)c2)=NO1` (stereo not drawn), the binding response (% of control) was inconclusive: 109%. In the case of `Cc1c(C(=O)NN)[nH]c2ccc([N+](=O)[O-])cc12`, the binding response (% of control) is reported as inconclusive: 87.5%. In the case of `CN(CC(=O)Nc1ccccc1-c1ccccc1)Cc1ccccc1Cl`, the binding response (% of control) is reported as inconclusive: 92.1%. For `Cc1ccc(Sc2ccc(N)cn2)cc1`, the binding response (% of control) was inconclusive: 13.1%. For `O=C(NCc1ccc(F)cc1)C(Cc1ccccc1)n1cccc1` (stereo not drawn), the binding response (% of control) was inconclusive: 115%. With `NC(=O)NC(=O)COC(=O)c1cccc(NS(=O)(=O)/C=C/c2ccccc2)c1` the binding response (% of control) was inconclusive: 100%. `CCOc1ccc(NS(=O)(=O)c2ccc(C)c(C(N)=O)c2)cc1` was tested, and the binding response (% of control) was inconclusive: 81%. For `CCCCCCOc1ccc(C(=O)O)cc1`, the binding response (% of control) was inconclusive: 117%. `COCCN1C=C2C(=O)C(C)(OC(=O)CCC(=O)OC)C(=O)C=C2C=C1C1CC1` (stereo not drawn) was tested, and the binding response (% of control) was inconclusive: 88.7%. In the case of `CCCc1nc2oc3c(=O)[nH]cnc3c2c2c1COC(C)(C)C2`, the binding response (% of control) is reported as inconclusive: 88.6%. In the case of `COc1cccc(C2Nc3cccc4cccc(c34)N2)c1`, the binding response (% of control) is reported as inconclusive: 119%. `O=C(COc1ccc(C(=S)N2CCC(Cc3ccccc3)CC2)cc1)N1CCOCC1` was tested, and the binding response (% of control) was inactive: 105%. `O=C(O)CCCC(=O)N1CCC(C(O)(c2ccccc2)c2ccccc2)CC1` was tested, and the binding response (% of control) was inactive: 94.8%. For `Cc1nnc(Nc2ccc(Cl)c(C(F)(F)F)c2)[nH]c1=O`, the binding response (% of control) was inconclusive: 72.6%. In the case of `Cc1nc(Sc2ccccc2)c(C#N)c(C)c1[N+](=O)[O-]`, the binding response (% of control) is reported as inconclusive: 115%. In the case of `O=C(N/N=C(\CC(=O)c1cccs1)C(F)(F)F)c1ccncc1`, the binding response (% of control) is reported as inconclusive: 66.1%. With `C=CC(COCc1ccccc1)N(C(=O)OC(C)(C)C)S(=O)(=O)c1ccccc1Br` (stereo not drawn) the binding response (% of control) was inconclusive: 60.4%. For `O=C(CN1N=C(c2ccc(Cl)cc2)CCC1=O)NCCN1CCc2ccccc2C1`, the binding response (% of control) was active: 4.01%. With `O=C(NC(=S)Nc1cnc2ccccc2c1)c1ccccc1` the binding response (% of control) was inconclusive: 112%. For `COC(=O)c1cc(NC(=O)c2cccc([N+](=O)[O-])c2C)ccc1Cl`, the binding response (% of control) was inconclusive: 90.3%. For `O=c1c2ccccc2nc(SCc2ccc(F)cc2Cl)n1CCCN1CCOCC1`, the binding response (% of control) was inconclusive: 112%. With `Cc1ccc(NC(=O)Cc2nnc(N)s2)cc1` the binding response (% of control) was inconclusive: 98.1%. With `C/C=C\C=C/C(=O)Nc1cccc(C2=NOC3(C2)C[C@@H](C(N)=O)N(C(=O)C2(C)CC2)C3)c1` (stereo partly drawn) the binding response (% of control) was inconclusive: 91%. For `C=CCOc1ccnc(-c2ccccc2)n1`, the binding response (% of control) was inconclusive: 154%. `COc1ccc(CCNCC2C(Oc3ccc(Cl)cc3)C(=O)N2c2ccccc2C)cc1OC` (stereo not drawn) was tested, and the binding response (% of control) was inactive: 93.9%. In the case of `O=C(Nc1ccccc1)N1CCN(S(=O)(=O)c2ccccc2)CC1`, the binding response (% of control) is reported as inactive: 100%. With `O=C(O)C1CCN(S(=O)(=O)c2ccc3c(c2)OCCCO3)CC1` the binding response (% of control) was inconclusive: 90.6%. `N#CC(C#N)=C1NC2(CCCCC2)Cc2ccccc21` was tested, and the binding response (% of control) was inconclusive: 69.7%. `CNc1nc(-c2ccc3c(c2)CCN3C(=O)c2cccc(F)c2)cs1` was tested, and the binding response (% of control) was inconclusive: 90.3%. With `COc1ccc(NC(=O)CCN2CCN(S(=O)(=O)c3cc(Cl)ccc3Cl)CC2)cc1` the binding response (% of control) was inactive: 114%. In the case of `COc1ccc(C(=O)NNC(=O)c2snnc2C)cc1`, the binding response (% of control) is reported as inconclusive: 28.8%. In the case of `O=C(Nc1ccc(Cl)c([N+](=O)[O-])c1)ONC1=NCCCCC1`, the binding response (% of control) is reported as inactive: 99.8%. In the case of `O=C(O)c1ccc(S(=O)(=O)c2ccc3c(c2)C(=O)N(NC(=O)c2cccnc2)C3=O)cc1`, the binding response (% of control) is reported as inconclusive: 62%. For `Cc1ccc(NNC(=O)c2ccno2)c(C)c1`, the binding response (% of control) was inconclusive: 56.6%. In the case of `COc1c(-c2ccc(O)c(O)c2)oc2cc(O)cc(O)c2c1=O`, the binding response (% of control) is reported as inconclusive: 155%. With `Cc1ccccc1Nc1c(-c2ccncc2)nc2ccc(Cl)cn12` the binding response (% of control) was inconclusive: 96.8%. `O=c1c2cc(Cl)cc(Cl)c2nc2n1CCC2` was tested, and the binding response (% of control) was inconclusive: 71.9%. In the case of `N#C/C(=C\c1ccc[nH]1)C(=O)c1ccccc1`, the binding response (% of control) is reported as inconclusive: 73.2%. `CCN(CC(=O)NCc1cccs1)c1ccc(S(=O)(=O)N2CCOCC2)cn1` was tested, and the binding response (% of control) was inactive: 98.2%. For `c1coc(C2OCC3(CO2)COC(c2ccco2)OC3)c1` (stereo not drawn), the binding response (% of control) was inconclusive: 124%. In the case of `C=CCNC(=O)C1CC2Cn3c(nc4cc(C)c(C)cc43)C2N1C` (stereo not drawn), the binding response (% of control) is reported as inconclusive: 102%. For `Cc1cccc(Cn2c(=O)c3c(nc4n3CCN4Cc3ccco3)n(C)c2=O)c1`, the binding response (% of control) was inactive: 110%. For `CC(C)(C)C(=O)/C=C1\NC(=O)CS1`, the binding response (% of control) was inconclusive: 85.1%. For `C=C1CCN([C@@H](C)C(=O)NCc2cc(OC)c(OC)c(OC)c2)S(=O)(=O)c2ccccc21`, the binding response (% of control) was inconclusive: 102%. With `COc1ccc(NC(=O)C(CC(C)C)NC(=O)C2CCC(C)CC2)c(OC)c1` (stereo not drawn) the binding response (% of control) was inactive: 109%. `CC1(C)CC(CCNC(=O)CCl)(c2ccccc2)CCO1` (stereo not drawn) was tested, and the binding response (% of control) was inconclusive: 4.84%. With `CN(C)c1nc(/C=C(\C#N)C(N)=O)c(Cl)n1-c1ccc(F)cc1` the binding response (% of control) was inconclusive: 91.7%. `CNC(=S)NNC(=O)c1ccccc1F` was tested, and the binding response (% of control) was inactive: 106%. With `Cc1ccc(NC(=O)COC(=O)CNC(=O)c2ccco2)cc1` the binding response (% of control) was inconclusive: 101%. With `C=CCN1C(=O)C(C)NC1=S` (stereo not drawn) the binding response (% of control) was inconclusive: 90%. For `CC1CC(=O)NN1C(=O)c1ccccc1` (stereo not drawn), the binding response (% of control) was inconclusive: 117%.
